Some of the results follow.
Tests used:
Assay in all cases: log2 fold change, soluble protein after heating vs DMSO (PISA); higher = thermal stabilisation; K562 lysate, 10 uM; active = over 0.2 and 3.5 SD of the protein, either way, in both replicates (recomputed)
alvocidib = compound: CN1CC[C@H](c2c(O)cc(O)c3c(=O)cc(-c4ccccc4Cl)oc23)[C@H](O)C1 [alvocidib]
Method in brief: (§1)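 A 30 min treatment with 10 μM compound was applied to crude K562 extract at 1 mg/mL protein in PBS pH 7.4 with 1 mM MgCl2. Heating for 3 min spanned 48°C-58°C, after which aliquots were pooled, adjusted to 0.5% NP-40 at 4°C and spun at 21,000xg for 90 min. TMTpro 16plex LC-MS/MS of the supernatant, with channel sums equalised, gave values recorded as log-two fold change in thermal stability against solvent controls, from duplicates.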

Amino acid sequences for entries named in this document (tags omitted). A change or cut given only in a name is not applied to a line headed by its entry.
UniProt Q9BVG4: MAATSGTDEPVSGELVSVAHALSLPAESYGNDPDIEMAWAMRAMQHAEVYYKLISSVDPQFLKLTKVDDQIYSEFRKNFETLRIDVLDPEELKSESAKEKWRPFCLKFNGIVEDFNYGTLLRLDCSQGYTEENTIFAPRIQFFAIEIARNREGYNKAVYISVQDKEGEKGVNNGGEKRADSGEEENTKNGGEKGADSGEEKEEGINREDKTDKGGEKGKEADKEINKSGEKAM
UniProt Q9Y5Y5: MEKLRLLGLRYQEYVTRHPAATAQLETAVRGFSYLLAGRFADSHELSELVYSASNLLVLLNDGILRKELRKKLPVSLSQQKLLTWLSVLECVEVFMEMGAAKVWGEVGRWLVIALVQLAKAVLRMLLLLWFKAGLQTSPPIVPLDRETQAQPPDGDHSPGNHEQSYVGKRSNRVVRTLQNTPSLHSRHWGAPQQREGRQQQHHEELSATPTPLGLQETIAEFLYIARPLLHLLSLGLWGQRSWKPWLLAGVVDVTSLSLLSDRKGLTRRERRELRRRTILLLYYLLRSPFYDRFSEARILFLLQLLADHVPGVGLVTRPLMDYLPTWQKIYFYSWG
UniProt Q9UHG3: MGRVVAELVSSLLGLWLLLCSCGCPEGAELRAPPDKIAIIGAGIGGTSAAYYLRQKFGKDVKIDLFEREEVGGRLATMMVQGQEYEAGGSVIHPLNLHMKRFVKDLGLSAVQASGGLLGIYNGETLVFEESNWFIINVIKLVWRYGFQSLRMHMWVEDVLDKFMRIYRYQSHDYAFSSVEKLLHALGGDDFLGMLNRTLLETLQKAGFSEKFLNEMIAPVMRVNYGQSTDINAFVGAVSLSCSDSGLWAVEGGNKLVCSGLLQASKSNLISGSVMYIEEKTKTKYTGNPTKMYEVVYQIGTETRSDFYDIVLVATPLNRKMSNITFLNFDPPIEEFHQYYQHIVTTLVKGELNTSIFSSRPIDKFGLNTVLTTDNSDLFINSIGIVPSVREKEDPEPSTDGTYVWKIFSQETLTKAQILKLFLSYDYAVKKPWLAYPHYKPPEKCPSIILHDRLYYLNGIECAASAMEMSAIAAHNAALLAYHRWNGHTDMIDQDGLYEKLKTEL
UniProt P40855: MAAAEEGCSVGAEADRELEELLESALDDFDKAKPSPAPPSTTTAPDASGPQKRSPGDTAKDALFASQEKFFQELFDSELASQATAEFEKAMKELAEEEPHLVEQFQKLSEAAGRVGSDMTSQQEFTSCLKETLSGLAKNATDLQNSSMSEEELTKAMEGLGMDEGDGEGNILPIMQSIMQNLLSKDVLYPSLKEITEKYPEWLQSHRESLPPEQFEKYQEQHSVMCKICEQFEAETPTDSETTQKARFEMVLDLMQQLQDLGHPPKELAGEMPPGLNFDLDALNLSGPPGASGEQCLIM
UniProt Q15154: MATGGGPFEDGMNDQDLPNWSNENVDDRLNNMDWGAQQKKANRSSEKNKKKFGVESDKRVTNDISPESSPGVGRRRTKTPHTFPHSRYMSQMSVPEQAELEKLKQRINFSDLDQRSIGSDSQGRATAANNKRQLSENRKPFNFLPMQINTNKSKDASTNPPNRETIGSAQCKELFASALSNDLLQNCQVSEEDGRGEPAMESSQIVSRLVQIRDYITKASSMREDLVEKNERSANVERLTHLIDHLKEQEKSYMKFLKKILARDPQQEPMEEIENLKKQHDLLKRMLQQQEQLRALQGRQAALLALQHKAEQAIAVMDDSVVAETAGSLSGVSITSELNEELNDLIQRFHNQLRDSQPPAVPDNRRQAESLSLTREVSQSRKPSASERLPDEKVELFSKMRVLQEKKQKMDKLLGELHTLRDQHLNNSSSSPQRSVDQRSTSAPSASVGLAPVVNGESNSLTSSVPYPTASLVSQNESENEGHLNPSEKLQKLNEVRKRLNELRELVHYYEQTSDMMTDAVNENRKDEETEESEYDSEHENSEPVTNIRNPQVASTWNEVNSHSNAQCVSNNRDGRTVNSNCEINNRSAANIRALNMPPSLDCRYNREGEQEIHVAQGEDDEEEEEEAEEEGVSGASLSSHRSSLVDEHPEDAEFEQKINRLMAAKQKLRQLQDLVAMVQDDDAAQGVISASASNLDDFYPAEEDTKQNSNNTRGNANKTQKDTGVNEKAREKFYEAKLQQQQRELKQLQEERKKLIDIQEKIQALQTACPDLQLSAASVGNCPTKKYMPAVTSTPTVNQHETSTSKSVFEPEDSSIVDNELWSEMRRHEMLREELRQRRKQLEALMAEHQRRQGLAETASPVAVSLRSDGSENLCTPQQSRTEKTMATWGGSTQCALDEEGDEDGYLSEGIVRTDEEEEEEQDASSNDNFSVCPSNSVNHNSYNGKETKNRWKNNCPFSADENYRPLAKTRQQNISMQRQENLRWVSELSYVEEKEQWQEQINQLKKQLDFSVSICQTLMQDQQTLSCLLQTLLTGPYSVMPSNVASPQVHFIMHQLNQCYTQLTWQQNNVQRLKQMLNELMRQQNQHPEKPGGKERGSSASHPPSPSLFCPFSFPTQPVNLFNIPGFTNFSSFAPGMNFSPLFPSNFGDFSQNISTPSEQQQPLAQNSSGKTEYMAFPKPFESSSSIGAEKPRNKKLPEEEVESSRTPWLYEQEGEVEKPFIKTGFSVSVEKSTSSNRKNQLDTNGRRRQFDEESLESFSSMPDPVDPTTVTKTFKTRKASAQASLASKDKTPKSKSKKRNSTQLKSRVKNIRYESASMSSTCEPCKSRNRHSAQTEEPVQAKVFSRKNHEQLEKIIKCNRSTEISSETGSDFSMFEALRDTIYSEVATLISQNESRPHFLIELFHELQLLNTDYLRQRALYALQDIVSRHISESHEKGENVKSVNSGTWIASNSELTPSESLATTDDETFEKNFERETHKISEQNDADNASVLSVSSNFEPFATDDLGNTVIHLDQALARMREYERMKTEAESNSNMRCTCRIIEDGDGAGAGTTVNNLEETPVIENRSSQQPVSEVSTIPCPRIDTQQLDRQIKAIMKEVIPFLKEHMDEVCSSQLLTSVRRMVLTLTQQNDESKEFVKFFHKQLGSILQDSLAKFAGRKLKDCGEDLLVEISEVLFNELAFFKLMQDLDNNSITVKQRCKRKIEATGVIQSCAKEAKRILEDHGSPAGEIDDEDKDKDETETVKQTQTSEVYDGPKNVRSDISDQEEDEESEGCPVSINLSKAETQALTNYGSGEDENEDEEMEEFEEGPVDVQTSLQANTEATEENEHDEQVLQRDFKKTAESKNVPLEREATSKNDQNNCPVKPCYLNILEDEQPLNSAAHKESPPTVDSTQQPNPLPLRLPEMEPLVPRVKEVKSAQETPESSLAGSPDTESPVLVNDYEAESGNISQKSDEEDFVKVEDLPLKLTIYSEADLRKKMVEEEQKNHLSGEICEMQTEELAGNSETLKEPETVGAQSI
UniProt P35227: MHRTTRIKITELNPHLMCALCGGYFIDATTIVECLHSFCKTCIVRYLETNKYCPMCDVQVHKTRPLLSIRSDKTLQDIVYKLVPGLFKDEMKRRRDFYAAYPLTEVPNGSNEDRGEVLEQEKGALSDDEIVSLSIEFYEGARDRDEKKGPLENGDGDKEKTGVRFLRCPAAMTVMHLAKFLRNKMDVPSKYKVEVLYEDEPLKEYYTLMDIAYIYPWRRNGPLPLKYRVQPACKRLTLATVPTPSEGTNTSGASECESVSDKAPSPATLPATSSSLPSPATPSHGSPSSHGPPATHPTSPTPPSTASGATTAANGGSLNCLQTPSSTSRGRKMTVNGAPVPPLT
UniProt P0DJ07: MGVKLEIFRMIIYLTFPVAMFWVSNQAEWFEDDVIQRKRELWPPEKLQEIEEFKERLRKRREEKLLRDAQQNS
UniProt Q13442: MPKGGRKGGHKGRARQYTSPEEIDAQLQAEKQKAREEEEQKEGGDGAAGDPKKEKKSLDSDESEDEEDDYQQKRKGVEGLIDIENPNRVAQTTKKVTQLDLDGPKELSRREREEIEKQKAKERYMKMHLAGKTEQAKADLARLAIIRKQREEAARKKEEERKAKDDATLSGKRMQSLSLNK

Tubastatin A = compound: CN1CCc2c(c3ccccc3n2Cc2ccc(C(=O)NO)cc2)C1 [Tubastatin A]
Method in brief: as §1

[1] = compound: CNC(=O)C1=CC=CC=C1NC2=NC(=NC=C2Cl)NC3=C(C=C(C=C3)N4CCOCC4)OC
Method in brief: as §1

defactinib = compound: CNC(=O)c1ccc(Nc2ncc(C(F)(F)F)c(NCc3nccnc3N(C)S(C)(=O)=O)n2)cc1 [defactinib]
Method in brief: as §1

[2] = compound: CNc1nc(-c2ccc3c(N)n[nH]c3c2)cc(N2C[C@@H](C(=O)NC3CCCCC3)CC[C@H]2C)n1
Method in brief: as §1

encorafenib = compound: COC(=O)N[C@@H](C)CNc1nccc(-c2cn(C(C)C)nc2-c2cc(Cl)cc(NS(C)(=O)=O)c2F)n1 [encorafenib]
Method in brief: as §1

[3] = compound: COC(=O)[C@H](CCSC)NC(=O)C1=C(C=C(C=C1)NC[C@H](CS)N)C2=CC=CC=C2
Method in brief: as §1

alisertib = compound: COc1cc(Nc2ncc3c(n2)-c2ccc(Cl)cc2C(c2c(F)cccc2OC)=NC3)ccc1C(=O)O [alisertib]
Method in brief: as §1

[4] = compound: COc1cc2nc(-c3cc(F)ccc3O)nc(N[C@@H]3CNC[C@H]3C(C)(C)O)c2cc1OC
Method in brief: as §1

gefitinib = compound: COc1cc2ncnc(Nc3ccc(F)c(Cl)c3)c2cc1OCCCN1CCOCC1 [gefitinib]
Method in brief: as §1

lapatinib = compound: CS(=O)(=O)CCNCc1ccc(-c2ccc3ncnc(Nc4ccc(OCc5cccc(F)c5)c(Cl)c4)c3c2)o1 [lapatinib]
Method in brief: as §1

pictilisib = compound: CS(=O)(=O)N1CCN(Cc2cc3nc(-c4cccc5[nH]ncc45)nc(N4CCOCC4)c3s2)CC1 [pictilisib]
Method in brief: as §1

crizotinib = compound: C[C@@H](Oc1cc(-c2cnn(C3CCNCC3)c2)cnc1N)c1c(Cl)ccc(F)c1Cl [crizotinib]
Method in brief: as §1

[5] = compound: C[C@H](C1=CC=C(C=C1)C(=O)NC2=C3C=CNC3=NC=C2)N
Method in brief: as §1

duvelisib = compound: C[C@H](Nc1ncnc2nc[nH]c12)c1cc2cccc(Cl)c2c(=O)n1-c1ccccc1 [duvelisib]
Method in brief: as §1

gandotinib = compound: Cc1cc(Nc2cc(CN3CCOCC3)c3nc(C)c(Cc4ccc(Cl)cc4F)n3n2)n[nH]1 [gandotinib]
Method in brief: as §1

tozasertib = compound: Cc1cc(Nc2cc(N3CCN(C)CC3)nc(Sc3ccc(NC(=O)C4CC4)cc3)n2)n[nH]1 [tozasertib]
Method in brief: as §1

doramapimod = compound: Cc1ccc(-n2nc(C(C)(C)C)cc2NC(=O)Nc2ccc(OCCN3CCOCC3)c3ccccc23)cc1 [doramapimod]
Method in brief: as §1

bafetinib = compound: Cc1ccc(NC(=O)c2ccc(CN3CC[C@H](N(C)C)C3)c(C(F)(F)F)c2)cc1Nc1nccc(-c2cncnc2)n1 [bafetinib]
Method in brief: as §1

[6] = compound: Cc1cccc(CC(=O)N2CCc3c2ccc(-c2cn(C)c4ncnc(N)c24)c3F)n1
Method in brief: as §1

Measured: log2 fold change

PBDC1 (UniProt Q9BVG4)
inactive: alvocidib 0.006 | Tubastatin A 0.016 | [1] -0.02 | defactinib -0.031 | [2] 0.023 | encorafenib 0.005 | [3] -0.04 | alisertib -0.032 | [4] -0.009 | gefitinib -0.062 | lapatinib 0.007 | pictilisib -0.026 | crizotinib 0.045 | [5] 0.002 | duvelisib 0.01 | gandotinib -0.011 | tozasertib 0.015 | doramapimod 0 | bafetinib -0.035 | [6] -0.045

PEX16 isoform 2 (UniProt Q9Y5Y5)
inactive: alvocidib -0.119 | Tubastatin A -0.137 | [1] 0.061 | defactinib 0.054 | [2] -0.046 | encorafenib 0.053 | [3] 0.068 | alisertib -0.013 | [4] -0.13 | gefitinib 0.107 | lapatinib 0.006 | pictilisib -0.109 | crizotinib -0.056 | [5] -0.212 | duvelisib 0.064 | gandotinib 0.152 | tozasertib 0.048 | doramapimod 0.02 | bafetinib -0.072 | [6] 0.067

PCYOX1 (UniProt Q9UHG3)
inactive: alvocidib 0.012 | Tubastatin A 0.019 | [1] -0.022 | defactinib 0.001 | [2] -0.088 | encorafenib 0.009 | [3] -0.075 | alisertib -0.014 | [4] 0.005 | gefitinib 0.006 | lapatinib -0.088 | pictilisib -0.025 | crizotinib 0.027 | [5] 0.075 | duvelisib -0.029 | gandotinib -0.024 | tozasertib 0.014 | doramapimod 0.012 | bafetinib 0.031 | [6] -0.033

PEX19 (UniProt P40855)
inactive: alvocidib -0.028 | Tubastatin A 0.007 | [1] 0.021 | defactinib 0.016 | [2] 0.085 | encorafenib -0.02 | [3] -0.092 | alisertib 0.028 | [4] -0.004 | gefitinib -0.024 | lapatinib 0.029 | pictilisib 0.031 | crizotinib -0.049 | [5] -0.021 | duvelisib 0.042 | gandotinib 0.058 | tozasertib -0.024 | doramapimod -0.008 | bafetinib -0.047 | [6] 0.044

PCM1 (UniProt Q15154)
inactive: alvocidib -0.003 | Tubastatin A -0.048 | [1] 0 | defactinib 0.014 | [2] 0.018 | encorafenib 0.042 | [3] -0.029 | alisertib -0.04 | [4] 0.021 | gefitinib 0.002 | lapatinib -0.014 | pictilisib -0.04 | crizotinib -0.02 | [5] 0.015 | duvelisib -0.006 | gandotinib -0.028 | tozasertib 0 | doramapimod -0.008 | bafetinib -0.033 | [6] 0.013

PCGF2 (UniProt P35227)
inactive: alvocidib 0.006 | Tubastatin A -0.065 | [1] 0.036 | defactinib 0.047 | [2] -0.031 | encorafenib 0.052 | [3] 0.031 | alisertib -0.032 | [4] -0.011 | gefitinib -0.005 | lapatinib 0.101 | pictilisib -0.015 | crizotinib -0.003 | [5] 0.029 | duvelisib -0.055 | gandotinib -0.093 | tozasertib 0.012 | doramapimod 0.046 | bafetinib -0.014 | [6] -0.014

PET100 (UniProt P0DJ07)
inactive: alvocidib 0.058 | Tubastatin A 0.113 | [1] -0.024 | defactinib -0.044 | [2] -0.106 | encorafenib -0.257 | [3] -0.042 | alisertib -0.087 | [4] -0.005 | gefitinib 0.019 | lapatinib 0 | pictilisib -0.047 | crizotinib 0.092 | [5] 0.16 | duvelisib -0.056 | gandotinib -0.195 | tozasertib 0.007 | doramapimod -0.048 | bafetinib 0.022 | [6] -0.187

PDAP1 (UniProt Q13442)
inactive: alvocidib -0.074 | Tubastatin A 0.063 | [1] 0.004 | defactinib -0.012 | [2] 0.109 | encorafenib -0.038 | [3] -0.017 | alisertib 0.006 | [4] 0.018 | gefitinib -0.029 | lapatinib -0.004 | pictilisib 0.03 | crizotinib 0.043 | duvelisib -0.043 | gandotinib 0.135 | tozasertib -0.026 | doramapimod -0.03 | bafetinib 0.006 | [6] 0.089
active: [5] -0.232
